Measured values taken from US20240115875A1, “Systems, Methods, and Substances for Controlled Endoluminal Energy Application” (Dream Big Biotechnologies B.V., priority 2021, published 2024).

System: tumor tissue
Assay: Estimated PDT threshold doses for several photosensitizers (photodynamic threshold model)
Settings: at the wavelength printed with each photosensitizer
Experimental: In these simulations, we assumed intravenous administration of a light-absorbing drug and the placement of a light emitter in the endovascular system at the site of tumor encroachment around it. Light absorbed by the photosensitizer was assumed to result in the local creation of short-lived cytotoxic radicals, causing cell death e.g. hemorrhagic tissue necrosis and apoptosis. To quantify the attainable effects, light-dose escalation studies were performed using Monte Carlo light propagation simulations (FullMonteCUDA) (“High-performance, robustly verified Monte Carlo simulation with FullMonte,” J. Biomed. Opt. 23(8), 085001 (2018)). The use of the photosensitizer BPD-MA mediated PDT was initially investigated in a simple “cube and tube” geometry representing the pancreas and a vessel traversing its center. The multilayered tube represented the vascular wall layers, intima, media and adventitia having an air-filled balloon with a linear line source in the center. […] Simulation properties were assigned as described above and PDT activation energies were escalated over the range of 10-100 J cm^−1 diffuser length, and the anticipated threshold dose in mJ·cm^−3 and radii of necrosis were estimated based on the photodynamic threshold model introduced by Patterson M, Wilson B C, Graff R: In vivo test of the concept of photodynamic threshold dose in normal rat liver photosensitized by aluminum chlorosulfunated phthalocyanine. Photochem Photobiol, 51(3): 343-349, 1990.
The pancreatic model is shown in FIG. 7A comprising a 4×4×5 cm cube, one half is assigned with optical properties of normal pancreatic tissue and the other half with those of cancerous pancreatic tissues. Running through the cube's center is a blood vessel made up of three layers, intima, media, adventitia, with assigned properties from the literature for aortic tissues. An initial dose-escalation simulation investigated if an adequate fluence [J·cm^−2] can be delivered through the vessel wall to create a surgically sufficiently large circumferential necrotic margin (mm) surrounding the vessel, based on the photosensitizer accumulation and the sensitizer's molar extinction coefficient. The vessel's inner diameter and wall thickness were set to 7.0 mm and 1.30 mm, respectively. The energy emitting source was cylindrical in shape with a length of 20 mm and the irradiance at the intima surface was fixed at 200 mW·cm^−2. The exposure times escalated to deliver 10 to 100 J total energy. An example of the absorbed energy density as a function of radius from the vessel center is shown in FIG. 7B, with an estimated necrotic margin ranging from […]. The subsequent necrotic clearing of viable tumor tissue from the adventitia is predicted based on the threshold model for common photosensitizers, see Tables 1 and 2.

| Molecule | 2.3 ϵC |
| --- | --- |
| c1ccc2c(c1)-c1nc-2nc2[nH]c(nc3nc(nc4[nH]c(n1)c1ccccc41)-c1ccccc1-3)c1ccccc21 [Phthalocyanine] | 3.25 cm⁻¹ |
| C=Cc1c(C)c2cc3nc(c(CC(=O)N[C@@H](CC(=O)O)C(=O)O)c4[nH]c(cc5nc(cc1[nH]2)C(C)=C5CC)c(C)c4C(=O)O)[C@@H](CCC(=O)O)[C@@H]3C [Talaporfin] | 0.20 cm⁻¹ |
| Photofrin | 0.02 cm⁻¹ |
| benzoporphyrin derivative monoacid ring A [Verteporfin] | 2.50 cm⁻¹ |
